Measured data: PubChem BioAssay AID1053208 (Peter MacCallum Cancer Centre, 2014)
Here is an unselected part of about 17,000 deposited reagents. 788 of all reagents (4.7%) count as active. 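Calls rest on z-score classes alone; an extra cut-off of viability at most 70% of control was not applied to them.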 Further read-outs or replicates are left out here. Reagent sequences are not shown.

- Assay: 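Genes whose silencing cuts survival of bone tumour cells only with doxorubicin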 (primary screen)
- Cells: mouse osteosarcoma cells, early-passage culture from an engineered mouse model of fibroblastic bone tumour
- Reagent: siRNA pool against mouse genes, 40 nM
- Timing: about 120 h (48 h before drug, then 72 h with drug)
- Challenge: doxorubicin 100 nM for 72 h, roughly 30-40% inhibitory dose
- Measured: 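Luminescent ATP signal taken as viability with or without 100 nM doxorubicin for 72 h; mean of two wells set against non-targeting siRNA and turned into robust z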
- Reading the numbers: viability z-score with doxorubicin: higher = more viable cells under doxorubicin; viability z-score without drug: higher = more viable cells with knock-down alone; z-score of drug to no-drug ratio: higher = less drug sensitisation by knock-down
- Hit rule: 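Called active if knock-down leaves viability unchanged without drug (z within -2 to 2) but lowers it with doxorubicin (z at or under -2)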

target gene | combined z-score class | viability z-score with doxorubicin | viability z-score without drug | z-score of drug to no-drug ratio | outcome
Vmn1r16 (vomeronasal 1 receptor 16) | no change with or without drug | -1.01 | -0.17 | -0.9 | inactive
Blmh (bleomycin hydrolase) | no change with or without drug | 0.22 | 0.17 | 0.22 | inactive
Fbp1 (fructose bisphosphatase 1) | no change with or without drug | 0.45 | -0.17 | 0.67 | inactive
Gper1 (G protein-coupled estrogen receptor 1) | no change with or without drug | -0.67 | -1.18 | 0.22 | inactive
Serpini2 (serine (or cysteine) peptidase inhibitor, clade I, member 2) | no change with or without drug | 1.35 | 1.52 | 0.45 | inactive
Magea4 (MAGE family member A4) | no change with or without drug | 0 | 0.67 | -0.34 | inactive
Clec2i (C-type lectin domain family 2, member i) | no change with or without drug | 1.8 | 1.52 | 0.9 | inactive
Tm2d1 (TM2 domain containing 1) | no change with or without drug | -0.45 | 1.01 | -1.01 | inactive
Tyk2 (tyrosine kinase 2) | no change with or without drug | -0.67 | 1.18 | -1.35 | inactive
Scarf2 (scavenger receptor class F, member 2) | no change with or without drug | 1.35 | 1.18 | 0.67 | inactive
Terb1 (telomere repeat binding bouquet formation protein 1) | no change with or without drug | -0.9 | 0.67 | -1.24 | inactive
Spic (Spi-C transcription factor (Spi-1/PU.1 related)) | no change with or without drug | -0.22 | -1.01 | 0.56 | inactive
Cks1b (CDC28 protein kinase 1b) | no change with or without drug | 0.45 | 1.18 | -0.22 | inactive
Lcn8 (lipocalin 8) | high cell count with doxorubicin only | 2.25 | 0.51 | 2.02 | inactive
Polh (polymerase (DNA directed), eta (RAD 30 related)) | no change with or without drug | -0.67 | -0.17 | -0.45 | inactive
Srp14 (signal recognition particle 14) | no change with or without drug | 0 | 0.84 | -0.45 | inactive
Gtpbp3 (GTP binding protein 3) | no change with or without drug | -0.9 | -0.67 | -0.34 | inactive
Adam3 (ADAM metallopeptidase domain 3) | no change with or without drug | -0.67 | 0 | -0.56 | inactive
Vmn1r-ps103 (vomeronasal 1 receptor, pseudogene 103) | high cell count with doxorubicin only | 2.59 | 1.85 | 1.35 | inactive
Trim68 (tripartite motif-containing 68) | high cell count without drug only | 1.57 | 2.02 | 0.34 | inactive
Gdf6 (growth differentiation factor 6) | no change with or without drug | -0.22 | 0 | -0.11 | inactive
Dclk2 (doublecortin-like kinase 2) | no change with or without drug | 0 | -0.84 | 0.67 | inactive
Ccnb1 (cyclin B1) | no change with or without drug | -0.79 | 0.17 | -0.79 | inactive
Slc25a5 | low cell count with doxorubicin only | -2.14 | -1.18 | -1.46 | active
Card6 (caspase recruitment domain family, member 6) | no change with or without drug | 0.34 | 0 | 0.45 | inactive
Myt1l (myelin transcription factor 1-like) | no change with or without drug | 1.69 | 0.67 | 1.35 | inactive
Pcdhga7 (protocadherin gamma subfamily A, 7) | low cell count with doxorubicin only | -2.7 | 0.34 | -2.92 | active
Lrrc40 (leucine rich repeat containing 40) | no change with or without drug | -1.12 | -1.35 | -0.11 | inactive
Serinc5 (serine incorporator 5) | no change with or without drug | -0.11 | -1.35 | 1.01 | inactive
Pbx1 (pre B cell leukemia homeobox 1) | no change with or without drug | 0.67 | -0.51 | 1.24 | inactive
Sdr9c7 (4short chain dehydrogenase/reductase family 9C, member 7) | high cell count without drug only | 1.91 | 3.2 | -0.11 | inactive
Rrp9 | low cell count with doxorubicin only | -2.25 | -1.18 | -1.57 | active
Pias4 (protein inhibitor of activated STAT 4) | no change with or without drug | 0 | -0.34 | 0.34 | inactive
Zfp120 (zinc finger protein 120) | low cell count with doxorubicin only | -2.47 | 0.17 | -2.59 | active
Meox2 (mesenchyme homeobox 2) | no change with or without drug | -0.22 | 0 | -0.11 | inactive
Cryba2 (crystallin, beta A2) | no change with or without drug | -0.56 | 0.17 | -0.56 | inactive
Or4b1c (olfactory receptor family 4 subfamily B member 1C) | no change with or without drug | 0.45 | -0.84 | 1.24 | inactive
Cyp26b1 (cytochrome P450, family 26, subfamily b, polypeptide 1) | no change with or without drug | 1.12 | -0.51 | 1.69 | inactive
Zswim3 (zinc finger SWIM-type containing 3) | no change with or without drug | 1.35 | -0.34 | 1.8 | inactive
Or8k30 (olfactory receptor family 8 subfamily K member 30) | no change with or without drug | 1.8 | -0.51 | 2.47 | inactive
Vmn1r89 (vomeronasal 1 receptor 89) | no change with or without drug | -0.67 | 0.51 | -0.9 | inactive
Edem2 (ER degradation enhancer, mannosidase alpha-like 2) | no change with or without drug | -1.46 | -1.69 | -0.34 | inactive
Meis2 (Meis homeobox 2) | no change with or without drug | 0.67 | 0.17 | 0.67 | inactive
Cyp1a2 (cytochrome P450, family 1, subfamily a, polypeptide 2) | no change with or without drug | 0.67 | -1.85 | 2.36 | inactive
Acap1 (ArfGAP with coiled-coil, ankyrin repeat and PH domains 1) | no change with or without drug | -0.45 | -0.34 | -0.11 | inactive
Tmem175 (transmembrane protein 175) | no change with or without drug | 0.22 | -0.17 | 0.45 | inactive
Zbtb39 (zinc finger and BTB domain containing 39) | no change with or without drug | -0.11 | 1.18 | -0.79 | inactive
Ppp1r13b (protein phosphatase 1, regulatory subunit 13B) | no change with or without drug | 1.12 | -0.51 | 1.69 | inactive
Lxn (latexin) | no change with or without drug | -0.34 | -0.84 | 0.34 | inactive
Ccdc90b (coiled-coil domain containing 90B) | no change with or without drug | -0.22 | -0.51 | 0.22 | inactive

5 consecutive reagents from above, quoted:
target gene | combined z-score class | viability z-score with doxorubicin | viability z-score without drug | z-score of drug to no-drug ratio | outcome
Spic (Spi-C transcription factor (Spi-1/PU.1 related)) | no change with or without drug | -0.22 | -1.01 | 0.56 | inactive
Cks1b (CDC28 protein kinase 1b) | no change with or without drug | 0.45 | 1.18 | -0.22 | inactive
Lcn8 (lipocalin 8) | high cell count with doxorubicin only | 2.25 | 0.51 | 2.02 | inactive
Polh (polymerase (DNA directed), eta (RAD 30 related)) | no change with or without drug | -0.67 | -0.17 | -0.45 | inactive
Srp14 (signal recognition particle 14) | no change with or without drug | 0 | 0.84 | -0.45 | inactive
